The record followed here is publication PMC4588680.

By UniProt entry, the sequences of proteins in these tests, tags left out.
UniProt P05556: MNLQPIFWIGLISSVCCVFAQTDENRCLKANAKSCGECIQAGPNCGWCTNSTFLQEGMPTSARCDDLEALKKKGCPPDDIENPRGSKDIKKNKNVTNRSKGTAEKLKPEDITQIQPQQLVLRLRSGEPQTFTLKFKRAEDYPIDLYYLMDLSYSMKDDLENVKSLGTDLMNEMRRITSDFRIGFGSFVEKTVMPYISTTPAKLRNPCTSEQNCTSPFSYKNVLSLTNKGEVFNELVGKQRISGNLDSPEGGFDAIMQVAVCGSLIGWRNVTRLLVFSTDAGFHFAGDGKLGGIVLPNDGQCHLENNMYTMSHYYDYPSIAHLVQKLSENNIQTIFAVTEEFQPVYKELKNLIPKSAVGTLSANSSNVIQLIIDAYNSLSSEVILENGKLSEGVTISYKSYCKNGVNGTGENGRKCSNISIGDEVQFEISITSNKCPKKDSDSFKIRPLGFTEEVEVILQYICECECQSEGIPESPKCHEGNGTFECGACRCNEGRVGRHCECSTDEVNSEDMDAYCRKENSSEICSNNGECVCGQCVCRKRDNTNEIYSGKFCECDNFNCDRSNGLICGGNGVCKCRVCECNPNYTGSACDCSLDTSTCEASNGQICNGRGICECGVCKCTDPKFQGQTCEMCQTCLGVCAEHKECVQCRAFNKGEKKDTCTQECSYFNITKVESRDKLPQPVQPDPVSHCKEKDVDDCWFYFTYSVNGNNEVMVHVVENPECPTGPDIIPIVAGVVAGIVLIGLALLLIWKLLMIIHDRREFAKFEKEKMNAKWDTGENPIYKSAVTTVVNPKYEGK
UniProt Q05397: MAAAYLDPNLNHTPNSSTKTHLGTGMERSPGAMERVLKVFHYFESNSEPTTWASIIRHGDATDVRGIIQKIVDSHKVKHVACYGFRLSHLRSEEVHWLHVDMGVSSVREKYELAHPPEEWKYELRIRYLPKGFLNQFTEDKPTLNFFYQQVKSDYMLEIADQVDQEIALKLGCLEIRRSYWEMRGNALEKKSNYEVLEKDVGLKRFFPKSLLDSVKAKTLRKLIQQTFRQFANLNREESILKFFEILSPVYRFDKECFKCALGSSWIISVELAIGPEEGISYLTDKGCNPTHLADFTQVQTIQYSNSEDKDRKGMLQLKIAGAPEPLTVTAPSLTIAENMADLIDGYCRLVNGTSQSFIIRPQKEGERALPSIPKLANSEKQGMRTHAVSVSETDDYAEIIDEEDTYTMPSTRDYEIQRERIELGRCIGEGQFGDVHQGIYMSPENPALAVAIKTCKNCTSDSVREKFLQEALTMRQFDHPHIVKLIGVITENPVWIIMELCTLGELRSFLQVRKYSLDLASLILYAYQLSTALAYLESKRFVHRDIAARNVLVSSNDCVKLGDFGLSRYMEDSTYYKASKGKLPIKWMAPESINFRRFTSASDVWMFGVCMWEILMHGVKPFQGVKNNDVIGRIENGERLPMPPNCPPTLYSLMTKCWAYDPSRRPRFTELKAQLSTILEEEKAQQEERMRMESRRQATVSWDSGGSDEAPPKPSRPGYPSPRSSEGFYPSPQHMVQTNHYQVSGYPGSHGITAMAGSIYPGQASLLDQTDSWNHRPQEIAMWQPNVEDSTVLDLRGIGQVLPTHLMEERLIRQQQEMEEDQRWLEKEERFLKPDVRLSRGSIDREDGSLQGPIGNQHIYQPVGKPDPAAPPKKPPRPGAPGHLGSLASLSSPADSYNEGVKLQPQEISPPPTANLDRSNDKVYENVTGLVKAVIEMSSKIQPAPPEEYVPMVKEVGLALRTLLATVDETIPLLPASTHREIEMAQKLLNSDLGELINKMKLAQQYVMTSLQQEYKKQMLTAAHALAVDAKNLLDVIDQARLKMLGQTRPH

Test [1] addresses urokinase-type plasminogen activator receptor (human (endogenous in BM-MSC)) (UniProt Q03405). The test is described as follows: co-IP; anti-uPAR antibody (IID7, 2 μg) on precleared RIPA lysates (100 μg proteins) of BM-MSC adherent on type I dermal collagen, treated or not with 50 ng/ml PDGF-AB for 1 hour; overnight at 4 °C; blotted for uPAR (399R) and P-FAK; isotypic control IgG.

The target of test [2] is β1-integrin subunit (human (endogenous in BM-MSC)) (UniProt P05556). Nature of the test: co-IP; anti-integrin β1 antibody (JB1A) on precleared RIPA lysates (100 μg proteins) of BM-MSC adherent on type I dermal collagen or cellular fibronectin, treated or not with 50 ng/ml PDGF-AB for 1, 3 or 18 hours; overnight at 4 °C; blotted for β1 integrin and uPAR (399R); isotypic control IgG.

Results are given in words; binding and its absence hold for the method and conditions named. Binding seen in cells or lysates may run through a third protein. Some binding calls cover weakened binding; strength is not graded here.

Take “autophosphorylated focal adhesion tyrosine kinase (from UniProt Q05397 1-1052) (enzyme)”: the binding entry in test [1] is listed as “binds”.
Consider “urokinase-type plasminogen activator receptor (from UniProt Q03405 23-305)”, for which the binding result in test [2] is listed as “binds”.
